Results from PubChem BioAssay AID504834 (National Center for Advancing Translational Sciences (NCATS), 2011).
Hit rate of the full screen: of about 320,000 compounds, about 22,000 (6.9%) were called active. The shares of active, inactive and inconclusive entries below differ from those in the screen. Calls follow the shape of the dose curve; as a rule, active = well fitted inhibition curve with a large enough effect; inconclusive = small, poorly fitted or top-dose-only effect, or another doubt; inactive = no such curve, though single readings can be large or run the other way. Where the call is inconclusive, the potency comes from a doubtful curve fit.

assay: Primary qHTS for delayed death inhibitors of the malarial parasite plastid, 96 hour incubation; settings: P. falciparum luciferase reporter growth; series mostly up to 28.7 µM; activity change, negative = inhibition: at the top concentration
Procedure, shortened: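 P. falciparum expressing integrated firefly luciferase, in erythrocytes at 2% hematocrit, 0.05% parasitemia, incubated with compounds 96 h at 37 C, 5% CO2. Growth inhibition read as loss of luminescence; two-generation exposure targets delayed-death apicoplast inhibitors.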
% is scaled to controls: 0 for no effect and ±100 for the full control effect; potency is read from the fitted curve at half-maximal effect.

Row | SMILES | Potency | activity change, negative = inhibition
1 | CCc1n[nH]c2c1/C(=N/O)CCC2 | inconclusive: 18.5 µM [inhibitor, single point] | –
2 | O=C(Nc1cccc2ccccc12)/C(=C\c1cccc([N+](=O)[O-])c1)NC(=O)c1cccs1 | inconclusive: 2.62 µM [inhibitor, partial curve, poor fit] | –
3 | CCOc1ccc(-n2c(C)cc(/C=C3/C(=N)N4C(=NC3=O)SN=C4S(C)(=O)=O)c2C)cc1 | active: 8.28 µM | –
4 | COCCNC(=O)CN(C(=O)Cn1nnc2ccccc21)c1ccc(F)c(Cl)c1 | active: 10.4 µM | –
5 | Clc1ccc(-c2nnc(SCc3cn4ccsc4n3)n2CC2CCCO2)cc1 (configuration not stated) | inconclusive: 0.0029 µM [inhibitor, full curve, poor fit] | –
6 | CCCOc1cccc(C(=O)Nc2cccc3ncccc23)c1 | inconclusive: 9.28 µM [inhibitor, partial curve, poor fit] | –
7 | COc1ccc(Cl)cc1C(=O)C1CCCN(CCO)C1 (configuration not stated) | inconclusive: 14.7 µM [inhibitor, single point] | –
8 | CN(C)S(=O)(=O)c1cccc(NC(=O)COC(=O)c2c[nH]c(=O)[nH]c2=O)c1 | inconclusive: 0.262 µM [inhibitor, full curve, poor fit] | –
9 | Cc1cccn2c(=O)nc(SCC(=O)NCc3ccc4c(c3)OCO4)nc12 | – | inactive: 1.65%
10 | CC(=O)Nc1ccc(NC(=O)c2ccccc2S(=O)(=O)c2ccccc2[N+](=O)[O-])cc1 | inconclusive: 18.5 µM [inhibitor, single point] | –
11 | COC(=O)NNC(=O)c1ccc(C)c(Br)c1 | inconclusive: 18.5 µM [inhibitor, single point] | –
12 | O=C(O)CN(CC(=O)O)Cc1cc2c(-c3ccccc3C(=O)O)c3cc(CN(CC(=O)O)CC(=O)O)c(=O)cc-3oc2cc1O | inconclusive: 7.57 µM [inhibitor, partial curve, poor fit] | –
13 | C/C=C/C(=O)OCC(=O)Nc1nc2ccc(C)cc2s1 | active: 10.4 µM | –
14 | COc1ccc(CCNC(=O)CSc2nc(-c3ccc(OC)c(OC)c3)ccc2C#N)cc1 | active: 10.4 µM | –
15 | Cn1c(COc2ccc([N+](=O)[O-])cc2)nnc1SCC(=O)NCC1CCCO1 (configuration not stated) | inconclusive: 18.5 µM [inhibitor, single point] | –
16 | CC(C)c1ccc(N(CC(=O)NC2CCCC2)C(=O)CCC(=O)Nc2nccs2)cc1 | inconclusive: 10.4 µM [inhibitor, partial curve] | –
17 | CC(C)(C)c1ccccc1NC(=S)NCc1ccccc1 | active: 13.1 µM | –
18 | C/C(CC(=O)Nc1ccc(Cl)cc1C(F)(F)F)=N\NC(=O)c1cccs1 | – | inactive: 27.9%
19 | CC1c2cc3c(cc2CCN1CC(=O)Nc1ccc(S(=O)(=O)N2CCCC2)cc1)OCCCO3 (configuration not stated) | inconclusive: 2.33 µM [inhibitor, full curve] | –
20 | COc1ccccc1C1C2=C(CCCC2=O)N(CC(=O)O)C2=C1C(=O)CCC2 | inconclusive: 10.4 µM [inhibitor, single point] | –
21 | COc1ccc(S(=O)(=O)N2CCOCC2)cc1C(=O)NC1CCCCCC1 | inconclusive: 9.28 µM [inhibitor, partial curve, poor fit] | –

Among those listed so far, two contain an NH in an aromatic ring.
Row | SMILES | Potency | activity change, negative = inhibition
1 | CCc1n[nH]c2c1/C(=N/O)CCC2 | inconclusive: 18.5 µM [inhibitor, single point] | –
8 | CN(C)S(=O)(=O)c1cccc(NC(=O)COC(=O)c2c[nH]c(=O)[nH]c2=O)c1 | inconclusive: 0.262 µM [inhibitor, full curve, poor fit] | –

The list goes on:

Row | SMILES | Potency | activity change, negative = inhibition
22 | O=C(c1ccc(Cn2c(=O)[nH]c3ccccc3c2=O)cc1)N1CCN(c2ccccn2)CC1 | – | inactive: 3.03%
23 | Cc1ccc(C2=NNC(C(O)C(O)C(O)C(C)O)S2)cc1 (configuration not stated) | – | inactive: 90.5%
24 | CC1(C)C(Cl)C(=O)C(C(=O)c2ccccc2)C(=O)C1Cl (configuration not stated) | inconclusive: 5.22 µM [inhibitor, single point] | –
25 | Cc1ccc[n+](CC(=O)Nc2cc(C(F)(F)F)ccc2Cl)c1 | inconclusive: 7.38 µM [inhibitor, partial curve] | –
26 | O=C(NC1CC1)C1CCN(S(=O)(=O)c2ccc(Cl)c([N+](=O)[O-])c2)CC1 | inconclusive: 18.5 µM [inhibitor, single point] | –
27 | COc1cc(N=Nc2c(O)c3ccccc3[nH]c2=O)c(OC)cc1N=Nc1ccccc1 | active: 2.33 µM | –
28 | CSc1nc2nccc(-c3ccc(-c4ccccc4)cc3)n2n1 | active: 10.4 µM | –
29 | O=C(CN1CCC(NC(=O)c2ccco2)CC1)Nc1ccccc1C(F)(F)F | inconclusive: 1.65 µM [inhibitor, full curve] | –
30 | CCN(CC)C1CCN(C(=O)c2ccc(OC3CCN(Cc4ccccn4)CC3)cc2)C1 (configuration not stated) | inconclusive: 18.5 µM [inhibitor, single point] | –
31 | CC1(C)CC(NC(=O)COc2ccc3c4c(c(=O)oc3c2)CCCC4)CC(C)(C)N1 | inconclusive: 10.4 µM [inhibitor, partial curve, poor fit] | –
32 | CCn1cc(C(=O)NCCCOC(C)C)c(=O)c2cc(S(=O)(=O)N3CCOCC3)ccc21 | inconclusive: 18.5 µM [inhibitor, single point] | –
33 | Cc1cc(=O)oc2cc(OCC(=O)N3CC[C@@]4(O)CCCC[C@H]4C3)c(Cl)cc12 | inconclusive: 18.5 µM [inhibitor, single point] | –
34 | O=C(Nc1ccc(OCC(=O)N2CCOCC2)cc1)Nc1cccc2ccccc12 | – | inactive: 35.8%
35 | O=C(c1ccccc1F)N1CCN(C(=O)C2CC2)CC1 | inconclusive: 18.5 µM [inhibitor, single point] | –
36 | CC1=NN(c2ccc([N+](=O)[O-])cc2)C(=O)/C1=C\N(C)C | active: 7.38 µM | –
37 | O=C(NCc1ccccc1F)C1CCN(C(=O)NCc2ccccc2)CC1 | inconclusive: 13.1 µM [inhibitor, single point] | –
38 | Cc1ccc(NC(=O)NC(=S)NC(=O)c2ccccc2)cc1 | – | inactive: 78.3%
39 | CC(=O)N1CCN(c2ccc([N+](=O)[O-])c(NCC3CCCO3)c2)CC1 (configuration not stated) | inconclusive: 18.5 µM [inhibitor, single point] | –
40 | CN(C)S(=O)(=O)c1cccc(C(=O)OCC(=O)Nc2ccccc2OC(F)F)c1 | inconclusive: 11.7 µM [inhibitor, single point] | –
41 | Cc1ccc(-c2ccc(=O)n(CCC(=O)N3CCC4(CC3)OCCO4)n2)cc1 | inconclusive: 10.4 µM [inhibitor, single point] | –
42 | O=C(O)Cn1cc2c(n1)CCCC2 | inconclusive: 8.28 µM [inhibitor, partial curve, poor fit] | –
